Data reported in patent US20210147525A1 (University of California, published 2021).
Changes are numbered by the printed parent chain. These are yes or no findings as the source states them, for the method shown. A result given as binding can be weak or reduced; the word gives no strength.

B1: 8-A9 (antibody, V domains shown)
VH: EVQLLESGGGLVQPGGSLRLSCAASGFTFSNYAMSWVRQAPGKGLEWVSAISGGGSRTYYADSVKGRFTISRDNSKNTLYLQMNSLRAEDTAVYYCAREARVLGYSLDYWGQGTLVTVSS
VL: DIQMTQSPSSLSASVGDRVTITCRASQRIGKYLNWYQQKPGKAPKLLIYAASSLQSGVPSRFSGSGSGTDFTLTISSLQPEDFATYYCQQSYSYPLTFGQGTKVEIK
B2: 8-C11 (antibody, V domains shown)
VH: EVQLLESGGGLVQPGGSLRLSCAASGFTFSSYAMSWVRQAPGKGLEWVSTIYVGGHRTYYADSVKGRFTISRDNSKNTLYLQMNSLRAEDTAVYYCARVGWSWGFDPWGQGTLVTVSS
VL: B1 VL with R28T, G30S, A50S, S93T
B3: 8-C4 (antibody, V domains shown)
VH: EVQLLESGGGLVQPGGSLRLSCAASGFTFSNYAMSWVRQAPGKGLEWVSAIYGSGGRTYYADSVKGRFTISRDNSKNTLYLQMNSLRAEDTAVYYCARLRYGFYQFDYWGQGTLVTVSS
VL: B1 VL with R28S, G30R, K31N, Q37E
B4: 8-C6 (antibody, V domains shown)
VH: EVQLLESGGGLVQPGGSLRLSCAASGFTFTDYAMSWVRQAPGKGLEWVSTIYSSGHRTYYADSVKGRFTISRDNSKNTLYLQMNSLRAEDTAVYYCARLYPLHSYAFDHWGQGTLVTVSS
VL: B1 VL with P8H, R28S, G30S, K31R, Y94V
B5: 8-E2 (antibody, V domains shown)
VH: QVQLVQSGAEVKKPGSSVKVSCKASGGTFSDEAIHWVRQAPGQGLEWMGRIIPVLGIASYAQKFQGRVTITADESTSTAYMELSSLRSEDTAVYYCARGLSRKAFYFDYWGQGTLVTVSS
VL: B1 VL with R28T, K31N, A50V, S93R, L96Y
B6: 8-F2 (antibody, V domains shown)
VH: B1 VH
VL: B1 VL
B7: 8-C10 (antibody, V domains shown)
VH: EVQLLESGGGLVQPGGSLRLSCAASGFTFSSYAMSWVRQAPGKGLEWVSTISASGATYYADSVKGRFTISRDNSKNTLYLQMNSLRAEDTAVYYCARGPYSYYYYSFDYWGQGTLVTVSS
VL: B1 VL with R28T, G30S, K31T, S93R
B8: 8-E3 (antibody, V domains shown)
VH: EVQLLESGGGLVQPGGSLRLSCAASGFTFSNYAMSWVRQAPGKGLEWVSTIYRGAGTYYADSVKGRFTISRDNSKNTLYLQMNSLRAEDTAVYYCARDASWYGPFSYYYYYGFDVWGQGTLVTVSS
VL: EIVMTQSPATLSVSPGERATLSCRASQSVYTNLAWYQQKPGQAPRLLIYDASTRATGIPARFSGSGSGTEFTLTISSLQSEDFAVYYCQQYNDWPLTFGQGTKVEIK
B9: 8-F1 (antibody, V domains shown)
VH: EVQLLESGGGLVQPGGSLRLSCAASGFTFTDYAMSWVRQAPGKGLEWVSGISGSGGVGTYYADSVKGRFTISRDNSKNTLYLQMNSLRAEDTAVYYCARGEYGSSIAYSYYYGFDVWGQGTLVTVSS
VL: B8 VL with T31N, L96Y

The binders below were run against human PLXDC1 protein, biotinylated (bait of the antibody library screen) (human) (assay: antibody library screen on biotinylated PLXDC1 with activating compound).

binding, binds:
B1
B2
B3
B4
B5
B6
B7
B8
B9
